This passage reports binding results from publication PMC11686847.

Chains of the proteins cited; added tags and fusions are not shown.
UniProt Q9UJX5: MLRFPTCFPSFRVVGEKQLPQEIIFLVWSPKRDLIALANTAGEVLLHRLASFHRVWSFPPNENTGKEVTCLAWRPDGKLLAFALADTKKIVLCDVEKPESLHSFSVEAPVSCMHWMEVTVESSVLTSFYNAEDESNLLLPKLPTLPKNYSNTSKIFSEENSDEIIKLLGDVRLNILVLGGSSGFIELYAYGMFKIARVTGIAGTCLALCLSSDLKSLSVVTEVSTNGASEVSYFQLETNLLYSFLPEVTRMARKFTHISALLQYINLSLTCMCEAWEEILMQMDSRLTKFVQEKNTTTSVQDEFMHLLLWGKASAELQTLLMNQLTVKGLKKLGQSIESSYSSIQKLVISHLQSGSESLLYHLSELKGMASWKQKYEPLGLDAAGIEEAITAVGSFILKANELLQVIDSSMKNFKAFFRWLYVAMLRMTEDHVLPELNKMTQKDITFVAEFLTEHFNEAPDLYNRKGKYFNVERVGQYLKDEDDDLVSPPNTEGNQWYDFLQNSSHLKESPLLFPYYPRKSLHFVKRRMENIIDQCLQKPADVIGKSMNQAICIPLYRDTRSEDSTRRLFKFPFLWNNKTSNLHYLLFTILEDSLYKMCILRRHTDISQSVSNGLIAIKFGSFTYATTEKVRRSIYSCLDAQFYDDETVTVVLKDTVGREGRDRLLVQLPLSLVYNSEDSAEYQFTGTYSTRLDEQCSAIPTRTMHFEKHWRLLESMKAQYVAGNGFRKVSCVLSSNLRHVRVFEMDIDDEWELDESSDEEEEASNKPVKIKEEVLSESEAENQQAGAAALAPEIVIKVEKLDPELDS
UniProt Q9UJX4: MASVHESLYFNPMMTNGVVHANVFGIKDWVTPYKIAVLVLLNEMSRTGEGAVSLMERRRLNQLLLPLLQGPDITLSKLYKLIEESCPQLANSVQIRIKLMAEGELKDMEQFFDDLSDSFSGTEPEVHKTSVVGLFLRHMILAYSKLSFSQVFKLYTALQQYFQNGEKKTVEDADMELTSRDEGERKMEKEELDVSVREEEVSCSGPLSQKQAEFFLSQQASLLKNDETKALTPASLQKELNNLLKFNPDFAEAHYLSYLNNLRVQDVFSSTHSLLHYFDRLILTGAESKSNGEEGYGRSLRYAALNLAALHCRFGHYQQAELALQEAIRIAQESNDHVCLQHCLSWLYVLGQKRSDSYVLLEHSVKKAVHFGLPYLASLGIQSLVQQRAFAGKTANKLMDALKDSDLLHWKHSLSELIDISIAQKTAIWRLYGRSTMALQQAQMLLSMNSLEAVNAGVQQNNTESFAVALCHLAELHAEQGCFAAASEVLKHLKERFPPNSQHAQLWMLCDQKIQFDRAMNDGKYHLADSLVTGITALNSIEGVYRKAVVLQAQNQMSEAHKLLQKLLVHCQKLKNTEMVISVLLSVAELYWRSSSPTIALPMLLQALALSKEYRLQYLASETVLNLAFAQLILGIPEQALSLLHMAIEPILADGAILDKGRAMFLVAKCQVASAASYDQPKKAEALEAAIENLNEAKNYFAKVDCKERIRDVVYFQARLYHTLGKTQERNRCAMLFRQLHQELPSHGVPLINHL
UniProt Q9H1A4: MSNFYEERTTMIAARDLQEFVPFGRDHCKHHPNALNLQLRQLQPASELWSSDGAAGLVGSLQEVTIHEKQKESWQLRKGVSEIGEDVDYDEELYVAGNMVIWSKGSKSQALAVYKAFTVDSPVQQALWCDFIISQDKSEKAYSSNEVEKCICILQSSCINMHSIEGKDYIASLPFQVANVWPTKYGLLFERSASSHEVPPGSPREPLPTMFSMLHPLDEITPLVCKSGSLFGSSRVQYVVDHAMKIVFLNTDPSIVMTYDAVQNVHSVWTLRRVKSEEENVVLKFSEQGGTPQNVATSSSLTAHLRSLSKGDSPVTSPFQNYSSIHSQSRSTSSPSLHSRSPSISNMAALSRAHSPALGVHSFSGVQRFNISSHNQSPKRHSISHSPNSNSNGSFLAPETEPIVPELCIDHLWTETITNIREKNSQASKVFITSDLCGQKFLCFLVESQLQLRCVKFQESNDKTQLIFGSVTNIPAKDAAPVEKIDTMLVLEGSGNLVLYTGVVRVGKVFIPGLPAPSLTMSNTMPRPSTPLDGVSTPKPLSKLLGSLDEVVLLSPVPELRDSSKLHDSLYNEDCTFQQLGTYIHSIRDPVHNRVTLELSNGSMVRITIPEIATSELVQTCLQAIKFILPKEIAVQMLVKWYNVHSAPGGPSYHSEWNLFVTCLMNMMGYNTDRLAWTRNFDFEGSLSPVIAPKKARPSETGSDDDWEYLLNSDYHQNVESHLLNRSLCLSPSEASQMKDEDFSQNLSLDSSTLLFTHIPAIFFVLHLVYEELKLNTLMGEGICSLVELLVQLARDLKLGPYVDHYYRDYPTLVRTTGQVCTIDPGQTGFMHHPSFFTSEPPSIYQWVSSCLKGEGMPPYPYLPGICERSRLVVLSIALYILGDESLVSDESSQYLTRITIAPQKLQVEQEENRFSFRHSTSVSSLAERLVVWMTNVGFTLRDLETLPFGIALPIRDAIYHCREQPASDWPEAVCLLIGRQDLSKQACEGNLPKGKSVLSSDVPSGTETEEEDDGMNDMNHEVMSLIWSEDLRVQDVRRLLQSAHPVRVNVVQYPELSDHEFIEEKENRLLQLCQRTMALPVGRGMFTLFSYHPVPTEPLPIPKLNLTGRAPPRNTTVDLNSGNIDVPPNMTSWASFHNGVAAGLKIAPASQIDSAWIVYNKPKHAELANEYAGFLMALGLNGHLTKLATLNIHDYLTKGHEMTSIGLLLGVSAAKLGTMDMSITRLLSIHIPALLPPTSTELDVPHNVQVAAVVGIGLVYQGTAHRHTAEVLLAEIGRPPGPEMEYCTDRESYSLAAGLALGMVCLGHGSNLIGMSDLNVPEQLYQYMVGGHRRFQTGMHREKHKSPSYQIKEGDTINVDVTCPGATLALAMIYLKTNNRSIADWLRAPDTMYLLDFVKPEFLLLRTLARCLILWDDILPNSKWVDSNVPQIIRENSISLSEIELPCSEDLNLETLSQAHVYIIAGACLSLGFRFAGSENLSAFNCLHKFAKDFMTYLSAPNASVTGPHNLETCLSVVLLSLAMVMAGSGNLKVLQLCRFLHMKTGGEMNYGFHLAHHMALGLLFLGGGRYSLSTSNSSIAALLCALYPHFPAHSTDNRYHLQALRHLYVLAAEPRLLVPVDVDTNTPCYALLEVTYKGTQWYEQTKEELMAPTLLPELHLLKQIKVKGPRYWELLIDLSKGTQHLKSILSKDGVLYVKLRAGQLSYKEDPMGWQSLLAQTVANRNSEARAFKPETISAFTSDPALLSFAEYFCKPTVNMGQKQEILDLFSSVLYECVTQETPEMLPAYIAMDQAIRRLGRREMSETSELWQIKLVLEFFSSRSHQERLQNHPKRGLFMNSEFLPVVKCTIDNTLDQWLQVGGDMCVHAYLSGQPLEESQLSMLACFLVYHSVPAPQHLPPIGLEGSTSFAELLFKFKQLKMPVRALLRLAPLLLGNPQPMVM
UniProt Q13257: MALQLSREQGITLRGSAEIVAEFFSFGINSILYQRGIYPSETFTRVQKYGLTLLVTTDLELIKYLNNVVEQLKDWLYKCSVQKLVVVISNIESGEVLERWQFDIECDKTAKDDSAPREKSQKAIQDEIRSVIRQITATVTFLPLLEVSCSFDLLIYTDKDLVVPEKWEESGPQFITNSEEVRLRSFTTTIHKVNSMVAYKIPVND
UniProt Q5TAX3: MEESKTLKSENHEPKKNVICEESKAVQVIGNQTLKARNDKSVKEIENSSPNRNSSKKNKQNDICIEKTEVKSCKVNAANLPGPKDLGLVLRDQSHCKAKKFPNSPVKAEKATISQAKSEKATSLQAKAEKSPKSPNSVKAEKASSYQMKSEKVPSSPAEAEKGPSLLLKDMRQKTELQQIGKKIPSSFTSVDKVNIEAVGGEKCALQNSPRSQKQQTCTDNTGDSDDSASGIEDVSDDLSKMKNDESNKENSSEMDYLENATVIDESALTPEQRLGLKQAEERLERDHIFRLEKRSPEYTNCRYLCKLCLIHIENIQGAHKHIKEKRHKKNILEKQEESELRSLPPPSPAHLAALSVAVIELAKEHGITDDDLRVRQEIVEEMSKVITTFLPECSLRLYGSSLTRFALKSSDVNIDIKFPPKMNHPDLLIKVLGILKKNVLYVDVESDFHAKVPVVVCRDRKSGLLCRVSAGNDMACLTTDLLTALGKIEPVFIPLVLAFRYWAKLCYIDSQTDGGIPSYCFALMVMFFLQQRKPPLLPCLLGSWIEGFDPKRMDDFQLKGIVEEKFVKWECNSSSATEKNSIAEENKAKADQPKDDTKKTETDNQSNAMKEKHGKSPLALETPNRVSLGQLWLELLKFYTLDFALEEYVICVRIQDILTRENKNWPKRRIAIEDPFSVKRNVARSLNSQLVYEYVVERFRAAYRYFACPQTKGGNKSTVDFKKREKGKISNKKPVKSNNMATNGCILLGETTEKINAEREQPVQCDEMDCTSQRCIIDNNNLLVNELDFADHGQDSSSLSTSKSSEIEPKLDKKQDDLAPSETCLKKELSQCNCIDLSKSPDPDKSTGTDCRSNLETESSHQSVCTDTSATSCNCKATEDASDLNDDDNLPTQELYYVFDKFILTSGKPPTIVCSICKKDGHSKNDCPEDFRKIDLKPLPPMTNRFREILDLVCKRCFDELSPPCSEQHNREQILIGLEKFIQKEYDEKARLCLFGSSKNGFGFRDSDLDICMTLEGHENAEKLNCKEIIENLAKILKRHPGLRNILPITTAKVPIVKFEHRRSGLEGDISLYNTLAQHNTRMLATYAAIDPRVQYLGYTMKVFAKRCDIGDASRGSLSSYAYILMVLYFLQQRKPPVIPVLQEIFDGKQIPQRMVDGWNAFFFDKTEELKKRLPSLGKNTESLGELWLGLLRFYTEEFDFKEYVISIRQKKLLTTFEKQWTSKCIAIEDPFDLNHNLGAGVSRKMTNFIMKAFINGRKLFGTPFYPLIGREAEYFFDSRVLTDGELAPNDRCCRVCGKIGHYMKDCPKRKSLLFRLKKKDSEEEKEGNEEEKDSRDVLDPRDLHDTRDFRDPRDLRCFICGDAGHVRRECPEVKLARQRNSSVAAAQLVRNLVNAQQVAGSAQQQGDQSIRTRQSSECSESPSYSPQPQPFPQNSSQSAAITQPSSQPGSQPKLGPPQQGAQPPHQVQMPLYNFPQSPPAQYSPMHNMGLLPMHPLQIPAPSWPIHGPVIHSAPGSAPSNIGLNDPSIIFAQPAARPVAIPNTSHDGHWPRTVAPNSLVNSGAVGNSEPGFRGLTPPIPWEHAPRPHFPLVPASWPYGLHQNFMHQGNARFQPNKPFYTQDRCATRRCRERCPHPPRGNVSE

The target of experiment [1] is T1, HA-tagged wild-type PATL2 (human) (UniProt C9JE40).
T1 sequence: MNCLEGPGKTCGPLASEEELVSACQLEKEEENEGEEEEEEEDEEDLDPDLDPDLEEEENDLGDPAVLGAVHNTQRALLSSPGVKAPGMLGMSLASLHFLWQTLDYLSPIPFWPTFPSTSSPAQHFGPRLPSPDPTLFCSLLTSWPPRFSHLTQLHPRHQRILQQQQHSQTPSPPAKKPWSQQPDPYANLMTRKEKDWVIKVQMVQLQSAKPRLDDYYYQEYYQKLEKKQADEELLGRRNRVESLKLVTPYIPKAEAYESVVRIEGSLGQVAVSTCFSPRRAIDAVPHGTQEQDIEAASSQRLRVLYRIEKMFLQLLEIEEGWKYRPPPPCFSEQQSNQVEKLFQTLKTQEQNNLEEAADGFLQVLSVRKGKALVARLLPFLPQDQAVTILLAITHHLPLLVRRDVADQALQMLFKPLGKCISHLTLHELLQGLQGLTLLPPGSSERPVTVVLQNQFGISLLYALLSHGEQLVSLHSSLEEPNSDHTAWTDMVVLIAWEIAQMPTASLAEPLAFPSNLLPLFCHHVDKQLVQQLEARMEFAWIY
The experiment can be described thus: affinity purification with mass spectrometry; HA vector, HA-PATL2 or HA-PATL2 V401F/R402W transfected into 293T cells for 48 h; HA affinity beads; washes with IP lysis buffer with 250 mM NaCl; on-bead trypsin digestion; Orbitrap Eclipse.

In experiment [2] the target is T1, HA-tagged wild-type PATL2 (human). The description is as above. The source holds these as a separate data set.

Read-outs that look alike come from different tables or passages of the source. No constants are given. Whether binding was seen depends on the method and setting. Binding seen in cells or lysates may run through a third protein. These calls come from enrichment with a bait or labelling near it, and not all partners need be listed. Tags and fused reporters may be left off the sequences shown.

“ANAPC4 (endogenous) (from UniProt Q9UJX5 1-808)”: in experiment [1], the binding entry is “binds”.
For the molecule “ANAPC5 (endogenous) (from UniProt Q9UJX4 1-755)”, in experiment [1], the binding entry was “binds”.
On the same count and under the same terms, then “APC1 (endogenous) (from UniProt Q9H1A4 1-1944)”, with “binds”; and “MAD2L1 (endogenous) (from UniProt Q13257 1-205)”, with “binds”; and “TUT4 (endogenous) (from UniProt Q5TAX3 1-1644) (enzyme)”, with “binds”.

B1: TUT7 (endogenous, 293T cells) (enzyme, UniProt Q5VYS8 1-1495)
chain: MGDTAKPYFVKRTKDRGTMDDDDFRRGHPQQDYLIIDDHAKGHGSKMEKGLQKKKITPGNYGNTPRKGPCAVSSNPYAFKNPIYSQPAWMNDSHKDQSKRWLSDEHTGNSDNWREFKPGPRIPVINRQRKDSFQENEDGYRWQDTRGCRTVRRLFHKDLTSLETTSEMEAGSPENKKQRSRPRKPRKTRNEENEQDGDLEGPVIDESVLSTKELLGLQQAEERLKRDCIDRLKRRPRNYPTAKYTCRLCDVLIESIAFAHKHIKEKRHKKNIKEKQEEELLTTLPPPTPSQINAVGIAIDKVVQEFGLHNENLEQRLEIKRIMENVFQHKLPDCSLRLYGSSCSRLGFKNSDVNIDIQFPAIMSQPDVLLLVQECLKNSDSFIDVDADFHARVPVVVCREKQSGLLCKVSAGNENACLTTKHLTALGKLEPKLVPLVIAFRYWAKLCSIDRPEEGGLPPYVFALMAIFFLQQRKEPLLPVYLGSWIEGFSLSKLGNFNLQDIEKDVVIWEHTDSAAGDTGITKEEAPRETPIKRGQVSLILDVKHQPSVPVGQLWVELLRFYALEFNLADLVISIRVKELVSRELKDWPKKRIAIEDPYSVKRNVARTLNSQPVFEYILHCLRTTYKYFALPHKITKSSLLKPLNAITCISEHSKEVINHHPDVQTKDDKLKNSVLAQGPGATSSAANTCKVQPLTLKETAESFGSPPKEEMGNEHISVHPENSDCIQADVNSDDYKGDKVYHPETGRKNEKEKVGRKGKHLLTVDQKRGEHVVCGSTRNNESESTLDLEGFQNPTAKECEGLATLDNKADLDGESTEGTEELEDSLNHFTHSVQGQTSEMIPSDEEEEDDEEEEEEEEPRLTINQREDEDGMANEDELDNTYTGSGDEDALSEEDDELGEAAKYEDVKECGKHVERALLVELNKISLKEENVCEEKNSPVDQSDFFYEFSKLIFTKGKSPTVVCSLCKREGHLKKDCPEDFKRIQLEPLPPLTPKFLNILDQVCIQCYKDFSPTIIEDQAREHIRQNLESFIRQDFPGTKLSLFGSSKNGFGFKQSDLDVCMTINGLETAEGLDCVRTIEELARVLRKHSGLRNILPITTAKVPIVKFFHLRSGLEVDISLYNTLALHNTRLLSAYSAIDPRVKYLCYTMKVFTKMCDIGDASRGSLSSYAYTLMVLYFLQQRNPPVIPVLQEIYKGEKKPEIFVDGWNIYFFDQIDELPTYWSECGKNTESVGQLWLGLLRFYTEEFDFKEHVISIRRKSLLTTFKKQWTSKYIVIEDPFDLNHNLGAGLSRKMTNFIMKAFINGRRVFGIPVKGFPKDYPSKMEYFFDPDVLTEGELAPNDRCCRICGKIGHFMKDCPMRRKVRRRRDQEDALNQRYPENKEKRSKEDKEIHNKYTEREVSTKEDKPIQCTPQKAKPMRAAADLGREKILRPPVEKWKRQDDKDLREKRCFICGREGHIKKECPQFKGSSGSLSSKYMTQGKASAKRTQQES
Take B1: the binding entry in experiment [2] is given as “binds”.
